Here are results for 3 molecules from paper PMC4746202.

Chains of the proteins cited; added tags and fusions are not shown. Residues count along the entry.
UniProt Q8K2Q9: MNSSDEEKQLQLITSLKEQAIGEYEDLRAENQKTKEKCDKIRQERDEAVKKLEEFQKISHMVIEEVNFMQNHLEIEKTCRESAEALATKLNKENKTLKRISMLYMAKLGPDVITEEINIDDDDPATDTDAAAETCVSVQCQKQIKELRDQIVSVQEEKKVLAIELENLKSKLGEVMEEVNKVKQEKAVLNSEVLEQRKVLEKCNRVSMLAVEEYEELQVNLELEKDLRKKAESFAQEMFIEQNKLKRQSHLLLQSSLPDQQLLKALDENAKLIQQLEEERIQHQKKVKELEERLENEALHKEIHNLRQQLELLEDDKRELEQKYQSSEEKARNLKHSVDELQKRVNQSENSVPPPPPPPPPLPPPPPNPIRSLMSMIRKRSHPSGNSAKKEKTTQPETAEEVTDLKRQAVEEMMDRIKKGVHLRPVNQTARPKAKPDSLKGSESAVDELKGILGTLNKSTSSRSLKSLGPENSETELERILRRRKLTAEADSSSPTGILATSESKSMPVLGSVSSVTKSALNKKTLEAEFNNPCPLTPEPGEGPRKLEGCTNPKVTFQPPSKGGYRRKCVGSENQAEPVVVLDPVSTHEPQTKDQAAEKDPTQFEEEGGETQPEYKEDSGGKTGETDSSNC
UniProt A0MZ66, residues 53-290: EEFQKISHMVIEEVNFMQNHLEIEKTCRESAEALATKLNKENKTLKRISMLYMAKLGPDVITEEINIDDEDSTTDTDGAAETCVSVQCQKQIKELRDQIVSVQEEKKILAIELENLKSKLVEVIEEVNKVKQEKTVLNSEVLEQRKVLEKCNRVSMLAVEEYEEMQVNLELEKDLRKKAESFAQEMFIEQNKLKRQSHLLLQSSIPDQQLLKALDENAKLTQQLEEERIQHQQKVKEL

Assay [1] addresses T1, C-terminus of human CDKL5 (amino acids 299-1030) fused to the Gal4 DNA-binding domain (human) (UniProt O76039).
T1 sequence: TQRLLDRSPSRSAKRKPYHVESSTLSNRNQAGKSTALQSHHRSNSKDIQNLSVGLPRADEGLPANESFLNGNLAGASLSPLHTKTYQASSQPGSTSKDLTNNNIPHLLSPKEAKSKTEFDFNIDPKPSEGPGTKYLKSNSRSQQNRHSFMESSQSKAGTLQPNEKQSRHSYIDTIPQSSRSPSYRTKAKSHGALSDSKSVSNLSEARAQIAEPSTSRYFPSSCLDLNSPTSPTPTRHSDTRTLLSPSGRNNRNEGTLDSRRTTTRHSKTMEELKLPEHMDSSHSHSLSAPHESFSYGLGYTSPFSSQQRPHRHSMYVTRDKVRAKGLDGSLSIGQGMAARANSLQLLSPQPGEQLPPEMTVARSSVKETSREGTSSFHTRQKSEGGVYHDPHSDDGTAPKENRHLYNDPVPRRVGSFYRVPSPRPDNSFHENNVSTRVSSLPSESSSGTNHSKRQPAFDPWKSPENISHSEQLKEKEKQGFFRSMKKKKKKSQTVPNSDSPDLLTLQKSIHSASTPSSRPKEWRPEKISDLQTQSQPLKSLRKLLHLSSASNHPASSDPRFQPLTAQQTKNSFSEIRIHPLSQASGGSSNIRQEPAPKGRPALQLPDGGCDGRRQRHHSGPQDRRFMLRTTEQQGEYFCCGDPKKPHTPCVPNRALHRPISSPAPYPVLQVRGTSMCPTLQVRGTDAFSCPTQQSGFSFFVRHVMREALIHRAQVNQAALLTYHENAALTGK
In words: two-hybrid; Gal4 DNA-binding domain bait (pB35) screened against a random-primed human adult brain cDNA library in pP6 by mating of Y187 and CG1945; His+ colonies selected on medium lacking tryptophan, leucine, methionine and histidine.

Assay [2] addresses T2, endogenous CDKL5 of mouse brain (mouse (endogenous in brain)) (UniProt Q3UTQ8).
T2 sequence: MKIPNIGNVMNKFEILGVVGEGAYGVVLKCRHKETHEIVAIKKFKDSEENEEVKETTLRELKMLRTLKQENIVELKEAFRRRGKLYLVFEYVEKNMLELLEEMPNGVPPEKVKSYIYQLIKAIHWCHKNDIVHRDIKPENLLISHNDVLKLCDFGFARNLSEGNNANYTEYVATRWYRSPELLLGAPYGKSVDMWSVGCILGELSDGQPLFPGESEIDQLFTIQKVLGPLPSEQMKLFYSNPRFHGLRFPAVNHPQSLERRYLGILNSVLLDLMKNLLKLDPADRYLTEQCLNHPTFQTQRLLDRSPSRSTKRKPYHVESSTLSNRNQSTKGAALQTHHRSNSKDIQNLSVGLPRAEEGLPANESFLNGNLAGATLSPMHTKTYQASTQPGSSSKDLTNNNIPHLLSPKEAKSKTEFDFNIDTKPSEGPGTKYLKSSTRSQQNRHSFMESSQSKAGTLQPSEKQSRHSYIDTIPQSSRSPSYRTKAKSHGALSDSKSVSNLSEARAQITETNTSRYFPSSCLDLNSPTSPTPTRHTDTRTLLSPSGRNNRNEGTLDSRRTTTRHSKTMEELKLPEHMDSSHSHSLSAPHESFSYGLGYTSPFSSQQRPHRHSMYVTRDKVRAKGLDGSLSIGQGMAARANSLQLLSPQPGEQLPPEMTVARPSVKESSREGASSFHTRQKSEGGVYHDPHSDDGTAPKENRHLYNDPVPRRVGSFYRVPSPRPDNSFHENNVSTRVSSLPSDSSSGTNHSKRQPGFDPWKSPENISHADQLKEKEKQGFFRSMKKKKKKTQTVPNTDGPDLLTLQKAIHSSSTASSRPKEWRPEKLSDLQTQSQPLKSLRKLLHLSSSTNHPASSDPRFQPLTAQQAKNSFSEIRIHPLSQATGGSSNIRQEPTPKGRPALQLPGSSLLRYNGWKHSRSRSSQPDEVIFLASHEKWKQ
Put plainly: co-IP; endogenous CDKL5 precipitated from P7 mouse brain extract (500 ug) with purified anti-CDKL5 overnight at 4 C, protein-G agarose; lysis buffer 50 mM Tris-HCl pH 7.5, 150 mM NaCl, 1% Triton X-100, 0.1% SDS; unrelated IgGs as control; blot for shootin1.

Assay [3] has as its target endogenous shootin1 of mouse brain (mouse (endogenous in brain)) (UniProt Q8K2Q9). Put plainly: co-IP; endogenous shootin1 precipitated from P5 mouse brain lysate (lysis buffer without SDS) with anti-shootin1 (Thermo Scientific), protein-G agarose saturated with 5% BSA; unrelated IgGs as control; blot for CDKL5.

These are yes or no findings as the source states them, for the method shown. For part of these data: In cells and extracts the contact can be indirect. Some entries that bind do so weakly or less than the wild type. For part of these data: Sequences can lack the tags named with a protein.

For “shootin1 prey clones from a human adult brain cDNA library (from UniProt A0MZ66-2 53-290) (domain or fragment)”, the binding entry in assay [1] is reported as “binds”. Regarding “endogenous shootin1 of mouse brain (from UniProt Q8K2Q9 1-631)”, in assay [2], the binding entry is reported as “binds”.

B1: endogenous CDKL5 of mouse brain (protein, UniProt Q3UTQ8 1-938)
chain: MKIPNIGNVMNKFEILGVVGEGAYGVVLKCRHKETHEIVAIKKFKDSEENEEVKETTLRELKMLRTLKQENIVELKEAFRRRGKLYLVFEYVEKNMLELLEEMPNGVPPEKVKSYIYQLIKAIHWCHKNDIVHRDIKPENLLISHNDVLKLCDFGFARNLSEGNNANYTEYVATRWYRSPELLLGAPYGKSVDMWSVGCILGELSDGQPLFPGESEIDQLFTIQKVLGPLPSEQMKLFYSNPRFHGLRFPAVNHPQSLERRYLGILNSVLLDLMKNLLKLDPADRYLTEQCLNHPTFQTQRLLDRSPSRSTKRKPYHVESSTLSNRNQSTKGAALQTHHRSNSKDIQNLSVGLPRAEEGLPANESFLNGNLAGATLSPMHTKTYQASTQPGSSSKDLTNNNIPHLLSPKEAKSKTEFDFNIDTKPSEGPGTKYLKSSTRSQQNRHSFMESSQSKAGTLQPSEKQSRHSYIDTIPQSSRSPSYRTKAKSHGALSDSKSVSNLSEARAQITETNTSRYFPSSCLDLNSPTSPTPTRHTDTRTLLSPSGRNNRNEGTLDSRRTTTRHSKTMEELKLPEHMDSSHSHSLSAPHESFSYGLGYTSPFSSQQRPHRHSMYVTRDKVRAKGLDGSLSIGQGMAARANSLQLLSPQPGEQLPPEMTVARPSVKESSREGASSFHTRQKSEGGVYHDPHSDDGTAPKENRHLYNDPVPRRVGSFYRVPSPRPDNSFHENNVSTRVSSLPSDSSSGTNHSKRQPGFDPWKSPENISHADQLKEKEKQGFFRSMKKKKKKTQTVPNTDGPDLLTLQKAIHSSSTASSRPKEWRPEKLSDLQTQSQPLKSLRKLLHLSSSTNHPASSDPRFQPLTAQQAKNSFSEIRIHPLSQATGGSSNIRQEPTPKGRPALQLPGSSLLRYNGWKHSRSRSSQPDEVIFLASHEKWKQ
Take B1: the binding result in assay [3] is reported as “binds”.
